{"source": "PubChem BioAssay AID1259263 (Sanger Institute, 2017)", "aim": "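Kinase knock-downs that boost drug killing of colorectal cancer cells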 (follow-up of hits)", "cells": "SW1463 human colorectal cancer cell line", "knock-down reagent": "single siRNA against human genes", "challenge": "anchor drugs BYL719 at 1 µM, cetuximab at 5 µg/ml or trametinib at 10 nM, or DMSO vehicle, added one day after siRNA transfection", "measurement": "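Viability relative to a non-targeting siRNA control, averaged over replicates, plus a synergy score contrasting measured with expected viability loss for knock-down and drug combined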", "reading the numbers": "synergy score with trametinib and synergy score with BYL719 and synergy score with cetuximab: higher = stronger synthetic lethal effect with the drug", "rule for the call": "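Called active if the synergy score is above 0.10 for one or more of the three anchor drugs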", "calls": "active = synergy with at least one drug; inactive = no synergy with any drug", "note": "This is a random part of 160 deposited reagents. 101 of them (63%) count as active. 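Drug doses chosen to kill few cells alone; each row is one siRNA, and a gene counts as confirmed only if two or more siRNAs show synergy.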 A number with no mark means an inactive call. Reagents against one gene are numbered here. Further read-outs or replicates are left out here. Not stated in the record: the amount of reagent, the time to read-out."}
{"Target gene": "STK36", "siRNA no.": 1, "synergy score with trametinib": -0.0702, "synergy score with BYL719": -0.312, "synergy score with cetuximab": -0.0542}
{"Target gene": "STK36", "siRNA no.": 2, "synergy score with trametinib": 0.00188, "synergy score with BYL719": -0.0704, "synergy score with cetuximab": -0.00565}
{"Target gene": "STK36", "siRNA no.": 3, "synergy score with trametinib": -0.0211, "synergy score with BYL719": -0.00469, "synergy score with cetuximab": -0.0409}
{"Target gene": "STK36", "siRNA no.": 4, "synergy score with trametinib": "0.184 (active)", "synergy score with BYL719": -0.0704, "synergy score with cetuximab": 0.154}
{"Target gene": "GUCY2D", "siRNA no.": 1, "synergy score with trametinib": 0.054, "synergy score with BYL719": -0.242, "synergy score with cetuximab": 0.0203}
{"Target gene": "GUCY2D", "siRNA no.": 2, "synergy score with trametinib": "0.157 (active)", "synergy score with BYL719": 0.0764, "synergy score with cetuximab": -0.0553}
{"Target gene": "GUCY2D", "siRNA no.": 3, "synergy score with trametinib": -0.179, "synergy score with BYL719": -0.268, "synergy score with cetuximab": -0.0702}
{"Target gene": "GUCY2D", "siRNA no.": 4, "synergy score with trametinib": 0.0326, "synergy score with BYL719": -0.11, "synergy score with cetuximab": -0.208}

Called active, of those listed so far:
{"Target gene": "STK36", "siRNA no.": 4, "synergy score with trametinib": "0.184 (active)", "synergy score with BYL719": -0.0704, "synergy score with cetuximab": 0.154}
{"Target gene": "GUCY2D", "siRNA no.": 2, "synergy score with trametinib": "0.157 (active)", "synergy score with BYL719": 0.0764, "synergy score with cetuximab": -0.0553}

The listing continues.
{"Target gene": "PFKFB3", "siRNA no.": 1, "synergy score with trametinib": 0.0741, "synergy score with BYL719": -0.12, "synergy score with cetuximab": 0.0891}
{"Target gene": "PFKFB3", "siRNA no.": 2, "synergy score with trametinib": "0.149 (active)", "synergy score with BYL719": -0.0226, "synergy score with cetuximab": 0.0498}
{"Target gene": "PFKFB3", "siRNA no.": 3, "synergy score with trametinib": "0.184 (active)", "synergy score with BYL719": -0.0678, "synergy score with cetuximab": -0.102}
{"Target gene": "PFKFB3", "siRNA no.": 4, "synergy score with trametinib": 0.0951, "synergy score with BYL719": -0.097, "synergy score with cetuximab": -0.108}
